Measurements taken from ChEMBL document CHEMBL1124123, “Graphics computer-aided receptor mapping as a predictive tool for drug design: development of potent, selective, and stereospecific ligands for the 5-HT1A receptor” (J Med Chem, 1988).

Biological target: T1, 5-hydroxytryptamine receptor 1A (Rattus norvegicus, UniProt P19327)
T1 sequence (P19327 whole entry): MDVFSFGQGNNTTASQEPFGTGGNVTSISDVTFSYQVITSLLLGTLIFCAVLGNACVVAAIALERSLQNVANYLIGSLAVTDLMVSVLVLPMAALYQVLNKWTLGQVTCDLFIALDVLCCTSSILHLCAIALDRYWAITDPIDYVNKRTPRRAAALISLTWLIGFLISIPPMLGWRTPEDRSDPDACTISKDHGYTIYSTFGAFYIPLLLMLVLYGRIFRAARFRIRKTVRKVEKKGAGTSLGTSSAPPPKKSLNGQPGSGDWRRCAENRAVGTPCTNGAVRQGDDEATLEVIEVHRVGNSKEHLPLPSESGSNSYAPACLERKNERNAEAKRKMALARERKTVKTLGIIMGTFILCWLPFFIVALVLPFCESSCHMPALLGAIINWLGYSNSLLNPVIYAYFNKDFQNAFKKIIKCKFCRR
Assay: Binding affinity towards 5-hydroxytryptamine 1A receptor in rat frontal cortex using [3H]8-OH-DPAT as a radioligand
Format: tissue-based
Procedure, shortened: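 Radioligand binding on rat brain membranes, labelling the 5-HT1A site with [3H]-8-OH-DPAT as the selective ligand.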

Compound: CC(C)NC[C@@H](O)COc1cccc2ccccc12 [DEXPROPRANOLOL]
- IC50: 0.17 µM
